Test results: the supplement of paper PMC3334620
Whole data set: some 33,000 sequences, median “E-score (-0.5 to 0.5)” near -0.0034, cut for the highest 2% near 0.25. Some of the results follow.

Molecular target: T1, Yap3 (UniProt P38749)
T1 sequence: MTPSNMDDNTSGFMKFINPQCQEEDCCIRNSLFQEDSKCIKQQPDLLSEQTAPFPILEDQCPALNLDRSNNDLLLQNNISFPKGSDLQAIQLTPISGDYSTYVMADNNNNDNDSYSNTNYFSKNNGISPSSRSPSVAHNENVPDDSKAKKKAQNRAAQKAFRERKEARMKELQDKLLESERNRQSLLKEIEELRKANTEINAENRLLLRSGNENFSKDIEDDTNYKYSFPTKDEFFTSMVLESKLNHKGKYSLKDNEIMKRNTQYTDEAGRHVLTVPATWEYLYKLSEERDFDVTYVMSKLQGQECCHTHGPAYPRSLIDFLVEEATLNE
Experiment: PBM E-score (8-mer binding enrichment) (E-score (-0.5 to 0.5)); higher = stronger / more preferred TF binding
Conditions: protein concentration: 100 nM; construct: GST-full length
Summary of the method: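 PURExpress in vitro transcription/translation supplied GST-tagged yeast transcription factors, either full-length or DNA-binding domain. Applied at about 100-200 nM to universal all-10-mer Agilent arrays double-stranded by primer extension, the bound protein was detected with fluorescent anti-GST. E-scores, modified Wilcoxon-Mann-Whitney statistics, were given by the Universal PBM Analysis Suite to ungapped eight-base words pooled with their reverse complements after masliner normalisation.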

Sequence	PBM E-score
AAAACGTA	0.141
CGTTCACC	0.0464
CGTGAACG	-0.189
CCATTCCC	-0.198
ACGCTATG	-0.086
CTAGGATA	-0.00481
GACTTTGC	0.112
GACGGATC	-0.0135
AATACGTG	0.0823
AGTATCTC	-0.00928
AAAACATA	0.181
GGATGAAC	-0.0771
CCGATCAA	-0.154
ACCAAGCG	-0.0737
CCCTAAAA	-0.104
GTCGGCCA	-0.279
ACATCCAA	0.0991
GTCCTCCA	-0.0436
GTTTATTA	0.268
AACGGACT	-0.0722
ACGGCACA	-0.0246
ATCGGAAG	0.122
TAATAGTA	0.142
CCTAGGAG	-0.234
GGGCGGAA	0.0193

Sequence	PBM E-score
CAATACAA	0.187
GGTGCCTA	-0.0752
CACATTTC	0.193
CGCACAAG	-0.0438
CAGAGCTA	-0.267
AAAAGATT	0.0254
CTTAGCCA	0.0218
CGGGTACG	-0.222
CTCAGTGC	-0.113
CAGGGAGC	-0.291
GAGGAGAA	-0.161
CATAACTA	0.0481
CCAATTAG	0.177
ATGGGACC	0.0297
CCAGACTA	0.00653
TACATGTA	0.255
CCCCCCAC	-0.408
AGTAACAC	0.142
CTCGGGAA	-0.109
CTAGCGCA	-0.0636
ACAGAAGG	-0.183
CTTGAGTA	0.0459
CTAGTAAG	0.0701
ATCTAATC	0.191
CAGGCAGC	-0.0913

Sequence	PBM E-score
AGATCATC	-0.0984
ATTTATAA	0.273
ACGCTACT	0.00361
AGAGCTAA	-0.0705
ACGAAGAG	0.0812
ACCCAACA	-0.0413
CTTGATTC	0.0825
AAGGAGAA	0.161
ATACTCTG	0.139
ATAGTTGA	0.161
CCGGATGC	-0.266
ATGCAAGC	0.0334
ATTGTTGA	0.173
AAGTAGTG	0.0834
ATAACACA	0.273
AGTCAGAA	-0.0212
CTGGCAAC	-0.0706
TATCTAGA	0.00566
GGTAGCAA	-0.0982
AGTTAGAC	-0.0213
ATAGATCA	0.112
ACAGCCTG	0.0194
CGGCACAC	-0.098
CATGATGG	-0.0998
CATCGGCC	-0.236

Sequence	PBM E-score
CATATTGC	-0.121
GAAGCAGC	-0.245
AGGTAGCC	-0.22
GTACATCA	0.142
TAAATTCA	0.0231
CCACCAGA	-0.0626
AGCTGCCT	-0.243
ATCGAATA	0.0665
TCATATAA	0.203
CCTTGGGC	-0.215
AGCTTTAG	-0.117
GGGAGAGA	-0.229
CTCTAGAA	-0.214
GTATGCAA	-0.0479
GAATTGGC	-0.0653
ATAAACAT	0.141
TAACCTAA	0.0921
CTCACCAC	-0.125
CTGAAGAA	-0.171
CAATCCAC	0.0675
TAAGCTGA	0.167
ACCGTGTA	0.101
AACCGGTA	-0.00429
GAACGTGC	-0.087
ACGTCGAG	-0.0705

Sequence	PBM E-score
GAGAGTGC	-0.0944
ACTAATTG	0.167
ATATGAGA	0.196
CCCATTAG	-0.352
GGCAAACA	-0.00268
CCAGATCC	-0.208
CGTGCAAA	0.0797
GTCGAAGA	0.00823
ACGGTCCG	-0.21
GGGCACAA	-0.0472
AACAACTC	-0.104
CGCCCTAC	-0.209
GCGTGTAA	0.00589
CGACGTAC	0.0214
CGTAGACG	-0.167
TCAGTAAA	0.162
CCTCATAC	0.0888
GCAAAAAC	0.212
AGGCCATG	0.0929
ACCTATAG	-0.0775
CTCAAGAC	-0.133
CATCTCCC	-0.0212
CGTCCCAA	-0.0512
CGCCGCGA	0.0437
GTTAACTA	0.23

Sequence	PBM E-score
CTCACCCC	-0.166
AACAAACC	0.0806
CGACTGCA	0.0353
AACCGACT	-0.0737
ACAGATGC	-0.17
AGTGACTA	-0.0718
CCGTCTAA	-0.0668
CTGTAAGA	-0.0157
AAAATTAC	0.273
CAGTTCAG	-0.0576
ATGGCCAC	-0.211
TAAGAGGA	0.0927
ATGAAAAT	0.209
GTTGAAAA	0.0707
AAGGCGAG	-0.117
GAGCACCC	-0.251
CAAGTCAC	-0.0278
GGGGATAC	-0.0513
ACAGTTTA	-0.0823
CAGATTTC	0.0398
GCGCACAC	0.1
CGCAACGC	-0.0681
AGTCTGGA	0.00286
GCTTCCTA	0.0545
AACAAACG	0.065

Sequence	PBM E-score
CCTCGATA	0.109
TTAGGGAA	0.0652
CAGAGAAC	-0.0475
AGGCACGA	-0.14
ATGAAAGC	0.223
GCGGTCCC	-0.25
TCTCTACA	0.1
GTTTCACA	0.145
CGTTGGAG	-0.153
GGCTTTCA	-0.0147
CCTAGAGC	-0.161
CACGCCTA	-0.1
CGGATTAC	0.116
AATGAAGG	-0.0122
AGTCAAAG	-0.0737
ACGCACAA	0.119
ACGTGCCC	0.0295
GCCGCCCA	-0.117
GACTGCCA	0.103
AGACTTCC	-0.161
GATCATAC	0.0631
AGGAATGG	0.00696

Part of the list above, with each value named.
TTAGGGAA
  PBM E-score: 0.0652
CAGAGAAC
  PBM E-score: -0.0475
AGGCACGA
  PBM E-score: -0.14
ATGAAAGC
  PBM E-score: 0.223
